Measured values published in US20140135288A1.
No constants are given. Whether binding was seen depends on the method and setting. Binding seen in cells or lysates may run through a third protein. Some binding calls cover weakened binding; strength is not graded here. Tags and fused reporters may be left off the sequences shown.

Chains of the proteins cited; added tags and fusions are not shown. Residues count along the entry.
UniProt P0DMV8, residues 2-641: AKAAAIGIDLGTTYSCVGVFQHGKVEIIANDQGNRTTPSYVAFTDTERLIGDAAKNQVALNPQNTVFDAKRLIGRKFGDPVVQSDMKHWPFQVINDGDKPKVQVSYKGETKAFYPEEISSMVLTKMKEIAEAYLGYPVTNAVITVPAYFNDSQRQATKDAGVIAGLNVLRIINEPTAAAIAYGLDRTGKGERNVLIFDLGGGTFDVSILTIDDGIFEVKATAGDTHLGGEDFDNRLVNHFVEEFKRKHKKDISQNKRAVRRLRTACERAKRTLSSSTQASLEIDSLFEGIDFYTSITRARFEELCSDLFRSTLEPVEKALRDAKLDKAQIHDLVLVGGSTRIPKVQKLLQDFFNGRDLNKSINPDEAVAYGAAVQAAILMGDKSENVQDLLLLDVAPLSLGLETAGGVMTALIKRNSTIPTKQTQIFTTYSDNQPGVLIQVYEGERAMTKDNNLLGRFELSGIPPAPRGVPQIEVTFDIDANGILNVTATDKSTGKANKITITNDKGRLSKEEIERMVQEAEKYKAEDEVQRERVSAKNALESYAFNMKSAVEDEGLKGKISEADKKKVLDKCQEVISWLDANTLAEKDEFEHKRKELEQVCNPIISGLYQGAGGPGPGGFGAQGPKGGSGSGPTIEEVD
UniProt P19838: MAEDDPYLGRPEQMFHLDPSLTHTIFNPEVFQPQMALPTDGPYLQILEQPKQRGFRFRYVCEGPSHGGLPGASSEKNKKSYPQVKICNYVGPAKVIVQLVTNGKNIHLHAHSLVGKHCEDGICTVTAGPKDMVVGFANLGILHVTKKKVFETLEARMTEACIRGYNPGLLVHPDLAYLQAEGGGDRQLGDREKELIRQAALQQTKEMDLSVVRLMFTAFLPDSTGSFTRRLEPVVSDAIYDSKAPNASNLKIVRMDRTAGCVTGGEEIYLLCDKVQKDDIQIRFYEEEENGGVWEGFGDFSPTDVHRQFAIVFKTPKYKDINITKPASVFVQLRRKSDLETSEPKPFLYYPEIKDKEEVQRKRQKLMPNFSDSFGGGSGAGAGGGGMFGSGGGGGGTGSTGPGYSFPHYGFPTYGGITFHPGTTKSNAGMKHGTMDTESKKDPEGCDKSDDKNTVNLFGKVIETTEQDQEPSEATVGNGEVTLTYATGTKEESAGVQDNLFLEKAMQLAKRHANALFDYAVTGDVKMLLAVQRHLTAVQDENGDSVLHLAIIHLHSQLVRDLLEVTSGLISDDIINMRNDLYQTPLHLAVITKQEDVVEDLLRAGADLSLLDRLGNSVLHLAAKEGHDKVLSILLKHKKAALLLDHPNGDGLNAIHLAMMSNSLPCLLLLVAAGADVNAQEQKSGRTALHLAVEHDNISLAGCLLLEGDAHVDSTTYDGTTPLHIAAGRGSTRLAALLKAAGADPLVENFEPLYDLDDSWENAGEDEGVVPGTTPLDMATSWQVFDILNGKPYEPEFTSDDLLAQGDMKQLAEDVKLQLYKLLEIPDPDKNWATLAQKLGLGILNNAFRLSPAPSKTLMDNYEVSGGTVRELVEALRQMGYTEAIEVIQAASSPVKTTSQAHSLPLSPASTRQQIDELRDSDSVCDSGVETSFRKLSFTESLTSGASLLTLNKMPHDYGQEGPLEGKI

How the values were obtained:
[1] = biological target: heat shock protein (HSP) 70 (UniProt P0DMV8); experiment: co-immunoprecipitation with V5 antibody from Daudi cell lysate, Western blot for HSP70
[2] = biological target: heat shock protein (HSP) 70 (UniProt P0DMV8); experiment: co-immunoprecipitation with V5 antibody, Western blot (FIG. 13)

binding [1]	binding [2]	Molecule
binds	binds	NF-κB1 (P105)-V5 tagged protein (from UniProt P19838 1-968)
binds	binds	NF-κB2 (p100)-V5 tagged protein (protein, human, UniProt Q00653 1-900, looked up, not shown: small tags and cut ends) MESCYNPGLDGIIEYDDFKLNSSIVEPKEPAPETADGPYLVIVEQPKQRGFRFRYGCEGPSHGGLPGASSEKGRKTYPTVKICNYEGPAKIEVDLVTHSDPPRAHAHSLVGKQCSELGICAVSVGPKDMTAQFNNLGVLHVTKKNMMGTMIQKLQRQRLRSRPQGLTEAEQRELEQEAKELKKVMDLSIVRLRFSAFLRASDGSFSLPLKPVISQPIHDSKSPGASNLKISRMDKTAGSVRGGDEVYLLCDKVQKDDIEVRFYEDDENGWQAFGDFSPTDVHKQYAIVFRTPPYHKMKIERPVTVFLQLKRKRGGDVSDSKQFTYYPLVEDKEEVQRKRRKALPTFSQPFGGGSHMGGGSGGAAGGYGGAGGGGSLGFFPSSLAYSPYQSGAGPMGCYPGGGGGAQMAATVPSRDSGEEAAEPSAPSRTPQCEPQAPEMLQRAREYNARLFGLAQRSARALLDYGVTADARALLAGQRHLLTAQDENGDTPLHLAIIHGQTSVIEQIVYVIHHAQDLGVVNLTNHLHQTPLHLAVITGQTSVVSFLLRVGADPALLDRHGDSAMHLALRAGAGAPELLRALLQSGAPAVPQLLHMPDFEGLYPVHLAVRARSPECLDLLVDSGAEVEATERQGGRTALHLATEMEELGLVTHLVTKLRANVNARTFAGNTPLHLAAGLGYPTLTRLLLKAGADIHAENEEPLCPLPSPPTSDSDSDSEGPEKDTRSSFRGHTPLDLTCSTKVKTLLLNAAQNTMEPPLTPPSPAGPGLSLGDTALQNLEQLLDGPEAQGSWAELAERLGLRSLVDTYRQTTSPSGSLLRSYELAGGDLAGLLEALSDMGLEEGVRLLRGPETRDKLPSTAEVKEDSAYGSQSVEQEAEKLGPPPEPPGGLCHGHPQPQVH
